Measured values published in publication PMC8102066 (eLife, 2021).
Positions count from the first letter of the chain named. Names and notes keep the numbering of the source. Values joined by “and” are separate entries in the source; they are usually repeats but may differ in a detail not shown here. Identical values can stand only once.

B1: SNAP-mGluR2-C121A (protein)
chain: EGPAKKVLTLEGDLVLGGLFPVHQKGGPAEECGPVNEHRGIQRLEAMLFALDRINRDPHLLPGVRLGAHILDSCSKDTHALEQALDFVRASLSRGADGSRHIAPDGSYATHSDAPTAVTGVIGGSYSDVSIQVANLLRLFQIPQISYASTSAKLSDKSRYDYFARTVPPDFFQAKAMAEILRFFNWTYVSTVASEGDYGETGIEAFELEARARNICVATSEKVGRAMSRAAFEGVVRALLQKPSARVAVLFTRSEDARELLAATQRLNASFTWVASDGWGALESVVAGSERAAEGAITIELASYPISDFASYFQSLDPWNNSRNPWFREFWEERFHCSFRQRDCAAHSLRAVPFEQESKIMFVVNAVYAMAHALHNMHRALCPNTTHLCDAMRPVNGRRLYKDFVLNVKFDAPFRPADTDDEVRFDRFGDGIGRYNIFTYLRAGSGRYRYQKVGYWAEGLTLDTSFIPWASPSAGPLPASRCSEPCLQNEVKSVQPGEVCCWLCIPCQPYEYRLDEFTCADCGLGYWPNASLTGCFELPQEYIRWGDAWAVGPVTIACLGALATLFVLGVFVRHNATPVVKASGRELCYILLGGVFLCYCMTFVFIAKPSTAVCTLRRLGLGTAFSVCYSALLTKTNRIARIFGGAREGAQRPRFISPASQVAICLALISGQLLIVAAWLVVEAPGTGKETAPERREVVTLRCNHRDASMLGSLAYNVLLIALCTLYAFKTRKCPENFNEAKFIGFTMYTTCIIWLAFLPIFYVTSSDYRVQTTTMCVSVSLSGSVVLGCLFAPKLHIILFQPQKNVVSHRAPTSRFGSAAPRASANLGQGSGSQFVPTVCNGREVVDSTTSSL
modifications: SNAP tag labelled with BG-LD555 (BG-LD655 in two-colour SiMPull); left off: HA, N-terminal, kept | SNAP, N-terminal, kept
B2: SNAP-mGluR2-C121A-3xTM4 (protein)
chain: B1 chain with A659S, A663F, A667G
modifications: SNAP tag labelled with BG-LD555; left off: HA, N-terminal, kept | SNAP, N-terminal, kept
B3: SNAP-mGluR2-C121A-I779A (protein)
chain: B1 chain with I761A
modifications: SNAP tag labelled with BG-LD555; left off: HA, N-terminal, kept | SNAP, N-terminal, kept
B4: SNAP-mGluR2-C121A-3xTM4-I779A (protein)
chain: B1 chain with A659S, A663F, A667G, I761A
modifications: SNAP tag labelled with BG-LD555; left off: HA, N-terminal, kept | SNAP, N-terminal, kept
B5: SNAP-mGluR3-C127A (protein)
chain: LGDHNFMRREIKIEGDLVLGGLFPINEKGTGTEECGRINEDRGIQRLEAMLFAIDEINKDNYLLPGVKLGVHILDTCSRDTYALEQSLEFVRASLTKVDEAEYMAPDGSYAIQENIPLLIAGVIGGSYSSVSIQVANLLRLFQIPQISYASTSAKLSDKSRYDYFARTVPPDFYQAKAMAEILRFFNWTYVSTVASEGDYGETGIEAFEQEARLRNICIATAEKVGRSNIRKSYDSVIRELLQKPNARVVVLFMRSDDSRELIAAANRVNASFTWVASDGWGAQESIVKGSEHVAYGAITLELASHPVRQFDRYFQSLNPYNNHRNPWFRDFWEQKFQCSLQNKRNHRQVCDKHLAIDSSNYEQESKIMFVVNAVYAMAHALHKMQRTLCPNTTKLCDAMKILDGKKLYKEYLLKINFTAPFNPNKGADSIVKFDTFGDGMGRYNVFNLQQTGGKYSYLKVGHWAETLSLDVDSIHWSRNSVPTSQCSDPCAPNEMKNMQPGDVCCWICIPCEPYEYLVDEFTCMDCGPGQWPTADLSGCYNLPEDYIKWEDAWAIGPVTIACLGFLCTCIVITVFIKHNNTPLVKASGRELCYILLFGVSLSYCMTFFFIAKPSPVICALRRLGLGTSFAICYSALLTKTNCIARIFDGVKNGAQRPKFISPSSQVFICLGLILVQIVMVSVWLILETPGTRRYTLPEKRETVILKCNVKDSSMLISLTYDVVLVILCTVYAFKTRKCPENFNEAKFIGFTMYTTCIIWLAFLPIFYVTSSDYRVQTTTMCISVSLSGFVVLGCLFAPKVHIVLFQPQKNVVTHRLHLNRFSVSGTATTYSQSSASTYVPTVCNGREVLDSTTSSL
modifications: SNAP tag labelled with BG-LD555 (BG-LD655 in two-colour SiMPull); left off: HA, N-terminal, kept | SNAP, N-terminal, kept
B6: SNAP-mGluR3-C127A-3xTM4 (protein)
chain: B5 chain with S664A, F668A, G672A
modifications: SNAP tag labelled with BG-LD555; left off: HA, N-terminal, kept | SNAP, N-terminal, kept
B7: SNAP-mGluR3-C127A-I788A (protein)
chain: B5 chain with I766A
modifications: SNAP tag labelled with BG-LD555; left off: HA, N-terminal, kept | SNAP, N-terminal, kept

Tested on: SNAP-tagged mGluR2 and mGluR3 constructs
Assay: SiMPull subunit counting, percent dimerization of constructs without ligand
Parameters: species or system rat
Conditions: construct without ligand; single replicates per experiment day

| Molecule | % Dimerization |
| --- | --- |
| B1 | 84.68% and 85.56% and 89.29% and 98.62% and 88.80% and 100.98% and 90.75% |
| B2 | 66.64% and 80.00% and 56.67% and 67.94% and 64.29% and 76.71% and 70.79% |
| B3 | 69.19% and 59.94% and 71.25% and 56.67% and 67.46% and 67.92% |
| B4 | 39.40% and 50.61% and 41.61% and 48.46% and 50.00% and 51.94% |
| B5 | 59.17% and 57.42% and 54.46% and 49.38% and 38.92% and 54.20% and 39.61% and 50.12% |
| B6 | 79.20% and 65.86% and 67.99% and 75.93% and 87.10% and 71.74% |
| B7 | 31.77% and 34.44% and 36.00% and 38.24% and 44.05% and 29.32% |
